Reference: ChEMBL document CHEMBL4316593 (Eur J Med Chem, 2019)
The source gives many values for each of these; only a part stands here.

Key:
Format in all cases: cell-based
Settings in all cases: U-87MG ATCC
[1] = Inhibition of RTK/PI3K/AKT/mTOR signaling in human U87 cells assessed as up regulation of PHGDH gene expression at cytotoxic IC50 measured after 48 hrs relative to control
[2] = Inhibition of RTK/PI3K/AKT/mTOR signaling in human U87 cells assessed as up regulation of JAG2 gene expression at cytotoxic IC50 measured after 48 hrs relative to control
[3] = Inhibition of RTK/PI3K/AKT/mTOR signaling in human U87 cells assessed as down regulation of ATG16L1 gene expression at cytotoxic IC50 measured after 48 hrs relative to control
[4] = Inhibition of RTK/PI3K/AKT/mTOR signaling in human U87 cells assessed as down regulation of SMTN gene expression at cytotoxic IC50 measured after 48 hrs relative to control
[5] = Inhibition of RTK/PI3K/AKT/mTOR signaling in human U87 cells assessed as up regulation of ras-related C3 botulinum toxin substrate 2 (rho family, small GTP binding protein Rac2) gene expression at cytotoxic IC50 measured after 48 hrs relative to control
[6] = Inhibition of RTK/PI3K/AKT/mTOR signaling in human U87 cells assessed as up regulation of RPL9 gene expression at cytotoxic IC50 measured after 48 hrs relative to control
[7] = Inhibition of RTK/PI3K/AKT/mTOR signaling in human U87 cells assessed as down regulation of ZNF16 gene expression at cytotoxic IC50 measured after 48 hrs relative to control
[8] = Inhibition of RTK/PI3K/AKT/mTOR signaling in human U87 cells assessed as down regulation of ACTR2 gene expression at cytotoxic IC50 measured after 48 hrs relative to control
[9] = Inhibition of RTK/PI3K/AKT/mTOR signaling in human U87 cells assessed as down regulation of NR4A2 gene expression at cytotoxic IC50 measured after 48 hrs relative to control
[10] = Inhibition of RTK/PI3K/AKT/mTOR signaling in human U87 cells assessed as down regulation of TIGAR gene expression at cytotoxic IC50 measured after 48 hrs relative to control
[11] = Inhibition of RTK/PI3K/AKT/mTOR signaling in human U87 cells assessed as up regulation of PIH1 domain containing 1 gene expression at cytotoxic IC50 measured after 48 hrs relative to control
[12] = Inhibition of RTK/PI3K/AKT/mTOR signaling in human U87 cells assessed as up regulation of FRAT2, WNT signaling pathway regulator gene expression at cytotoxic IC50 measured after 48 hrs relative to control
[13] = Inhibition of RTK/PI3K/AKT/mTOR signaling in human U87 cells assessed as down regulation of GCA gene expression at cytotoxic IC50 measured after 48 hrs relative to control
[14] = Inhibition of RTK/PI3K/AKT/mTOR signaling in human U87 cells assessed as up regulation of COL6A1 gene expression at cytotoxic IC50 measured after 48 hrs relative to control
[15] = Inhibition of RTK/PI3K/AKT/mTOR signaling in human U87 cells assessed as up regulation of nudE neurodevelopment protein 1 gene expression at cytotoxic IC50 measured after 48 hrs relative to control
[16] = Inhibition of RTK/PI3K/AKT/mTOR signaling in human U87 cells assessed as down regulation of RRM2 gene expression at cytotoxic IC50 measured after 48 hrs relative to control
[17] = Inhibition of RTK/PI3K/AKT/mTOR signaling in human U87 cells assessed as down regulation of THUMPD3-AS1 gene expression at cytotoxic IC50 measured after 48 hrs relative to control
[18] = Inhibition of RTK/PI3K/AKT/mTOR signaling in human U87 cells assessed as down regulation of NDOR1 gene expression at cytotoxic IC50 measured after 48 hrs relative to control
[19] = Inhibition of RTK/PI3K/AKT/mTOR signaling in human U87 cells assessed as down regulation of CASP3 gene expression at cytotoxic IC50 measured after 48 hrs relative to control
[20] = Inhibition of RTK/PI3K/AKT/mTOR signaling in human U87 cells assessed as down regulation of FAM111B gene expression at cytotoxic IC50 measured after 48 hrs relative to control
[21] = Inhibition of RTK/PI3K/AKT/mTOR signaling in human U87 cells assessed as up regulation of SLC16A5 gene expression at cytotoxic IC50 measured after 48 hrs relative to control
[22] = Inhibition of RTK/PI3K/AKT/mTOR signaling in human U87 cells assessed as down regulation of HIF1A gene expression at cytotoxic IC50 measured after 48 hrs relative to control
[23] = Inhibition of RTK/PI3K/AKT/mTOR signaling in human U87 cells assessed as down regulation of HAUS2 gene expression at cytotoxic IC50 measured after 48 hrs relative to control
[24] = Inhibition of RTK/PI3K/AKT/mTOR signaling in human U87 cells assessed as down regulation of LRRC57 gene expression at cytotoxic IC50 measured after 48 hrs relative to control
[25] = Inhibition of RTK/PI3K/AKT/mTOR signaling in human U87 cells assessed as up regulation of C10orf10 gene expression at cytotoxic IC50 measured after 48 hrs relative to control
[26] = Inhibition of RTK/PI3K/AKT/mTOR signaling in human U87 cells assessed as up regulation of CDK9 gene expression at cytotoxic IC50 measured after 48 hrs relative to control
[27] = Inhibition of RTK/PI3K/AKT/mTOR signaling in human U87 cells assessed as down regulation of ZBTB41 gene expression at cytotoxic IC50 measured after 48 hrs relative to control
[28] = Inhibition of RTK/PI3K/AKT/mTOR signaling in human U87 cells assessed as down regulation of C10orf35 gene expression at cytotoxic IC50 measured after 48 hrs relative to control
[29] = Inhibition of RTK/PI3K/AKT/mTOR signaling in human U87 cells assessed as down regulation of CSTF3 gene expression at cytotoxic IC50 measured after 48 hrs relative to control
[30] = Inhibition of RTK/PI3K/AKT/mTOR signaling in human U87 cells assessed as down regulation of CDCA2 gene expression at cytotoxic IC50 measured after 48 hrs relative to control
[31] = Inhibition of RTK/PI3K/AKT/mTOR signaling in human U87 cells assessed as up regulation of Rap guanine nucleotide exchange factor like 1 gene expression at cytotoxic IC50 measured after 48 hrs relative to control
[32] = Inhibition of RTK/PI3K/AKT/mTOR signaling in human U87 cells assessed as up regulation of GDA gene expression at cytotoxic IC50 measured after 48 hrs relative to control

SMILES: CC(=O)C(=NNc1ccccc1C#N)C(C)=O
- log2FC [1]: 0.507
- log2FC [2]: 2.21
- log2FC [3]: -0.763
- log2FC [4]: -1.29
- log2FC [5]: 0.826
- log2FC [6]: 0.445
- log2FC [7]: -0.904
- log2FC [8]: -0.436
- log2FC [9]: -1.73
- log2FC [10]: -1.08
- log2FC [11]: 0.748
- log2FC [12]: 1.34
- log2FC [13]: -1.2
- log2FC [14]: 0.421
- log2FC [15]: 0.909
- log2FC [16]: -1.39
- log2FC [17]: -2.45
- log2FC [18]: -1.35
- log2FC [19]: -1.21
- log2FC [20]: -2.29
- log2FC [21]: 2.09
- log2FC [22]: -0.556
- log2FC [23]: -0.745
- log2FC [24]: -0.744
- log2FC [25]: 1.83
- log2FC [26]: 0.53
- log2FC [27]: -1.52
- log2FC [28]: -1.05
- log2FC [29]: -1.2
- log2FC [30]: -1.19
- log2FC [31]: 1.21
- log2FC [32]: 1.58
